# Measurements reported in publication PMC6925144, “A prospective compound screening contest identified broader inhibitors for Sirtuin 1” (Scientific Reports, 2019).
# By UniProt entry, the sequences of proteins in these tests, tags left out. Residues count along the entry.
# UniProt Q96EB6, 2-747 limits assumed: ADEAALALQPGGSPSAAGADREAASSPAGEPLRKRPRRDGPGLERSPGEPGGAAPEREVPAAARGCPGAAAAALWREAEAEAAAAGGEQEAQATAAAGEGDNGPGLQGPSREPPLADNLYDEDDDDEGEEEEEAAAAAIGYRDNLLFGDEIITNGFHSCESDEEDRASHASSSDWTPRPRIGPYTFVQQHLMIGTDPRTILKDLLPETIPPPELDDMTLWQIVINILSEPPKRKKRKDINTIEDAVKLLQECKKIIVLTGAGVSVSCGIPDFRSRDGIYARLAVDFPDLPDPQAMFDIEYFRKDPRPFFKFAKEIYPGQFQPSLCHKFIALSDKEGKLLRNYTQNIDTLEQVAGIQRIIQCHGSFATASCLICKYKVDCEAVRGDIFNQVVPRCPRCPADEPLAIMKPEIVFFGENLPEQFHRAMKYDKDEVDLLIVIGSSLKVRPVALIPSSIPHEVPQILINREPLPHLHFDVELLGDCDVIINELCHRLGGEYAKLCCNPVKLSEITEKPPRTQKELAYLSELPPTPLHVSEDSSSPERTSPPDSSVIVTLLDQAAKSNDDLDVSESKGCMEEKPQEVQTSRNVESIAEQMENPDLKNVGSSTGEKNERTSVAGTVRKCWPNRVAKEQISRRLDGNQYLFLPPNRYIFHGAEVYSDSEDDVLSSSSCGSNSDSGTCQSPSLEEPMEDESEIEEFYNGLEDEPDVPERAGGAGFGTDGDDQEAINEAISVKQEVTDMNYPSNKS
# The full ranking holds about 3,200 compounds; the median of “TSA(with NAD+) / Primary screening (TSA) / delta Tm (K)” is about -0.04, and the highest 2% start at about 0.37. The list shows a part of the results.
# Target: NAD-dependent deacetylase Sirtuin 1 (human, UniProt Q96EB6)
# Test: primary screen, delta tm
# Design: single well (n = 1, as 'the same TSA')
# Conditions: 10 µM
row,SMILES,TSA(with NAD+) / Primary screening (TSA) / delta Tm (K)
1,Cc1noc(C)c1CNc1ncnc2ccsc12,-0.14
2,NC(=O)c1ccc2[nH]c3c(c2c1)CCCC3,0.15
3,NC(=O)c1cc(NC(=O)CC(c2ccccc2)c2ccccc2)cc(C(N)=O)c1,-0.06
4,COC(=O)c1cc(Br)cc(C(=O)O)c1,-0.52
5,CN(Cc1ccco1)C(=O)CSc1nccn1Cc1ccccn1,0.05
6,COc1cccc(C(=O)C2=C(O)C(=O)N(CCCN3CCOCC3)C2c2ccc(C)o2)c1 (centres unmarked),-0.18
7,Cc1nc(-c2ccc(NC(=O)C3Cc4ccccc4O3)cc2)co1 (centres unmarked),-0.01
8,O=C(COc1ccc(Cl)cc1)OCCCC(=O)c1ccc(F)cc1,0.06
9,Cc1c(-c2ccccc2)sc(NC(=O)C23CC4CC(CC(O)(C4)C2)C3)c1C(=O)N1CCOCC1,-0.06
10,O=C(C1=C(O)C(=O)N(CCCN2CCOCC2)C1c1ccco1)c1cc2ccccc2o1 (centres unmarked),0.09
11,COC(=O)C1Cc2ccccc2N1 (centres unmarked),-0.13
12,NC(=O)c1ccc(C(=O)N2Cc3cc4c(cc3C3(CCCC3)C2)OCCO4)cc1,-0.05
13,CCOc1ccc(C2C(C(=O)c3sc(C)nc3C)=C(O)C(=O)N2CCCN2CCOCC2)cc1 (centres unmarked),-0.01
14,O=c1cc(NCC2COc3ccccc3O2)nc2ccccn12 (centres unmarked),-0.19
15,CC1CCN(c2nnc(SCC(=O)Nc3sc4c(c3C(N)=O)CCC4)n2C2CC2)CC1,-0.11
16,O=C(NCc1ccc(S(=O)(=O)N2CCOCC2)cc1)C12CC3CC(C1)CC(c1ccccc1)(C3)C2,0.03
17,NC(=O)c1ccc(CN2CCSCC2)cc1,0.07
18,N#CC(C(=O)c1ccc([N+](=O)[O-])s1)=C1Nc2ccccc2N1,-0.02
19,NNC(=O)COc1ccccc1Cl,0.05
20,O=C(CSc1nnnn1-c1ccc(O)cc1)N1N=C(c2ccc3ccccc3c2)CC1c1ccccc1 (centres unmarked),0.66
21,O=c1[nH]c2ccccc2c(=O)n1CCSCCCO,-0.08

# Ordered by formula weight (high to low): part of the list above
row,SMILES,TSA(with NAD+) / Primary screening (TSA) / delta Tm (K)
20,O=C(CSc1nnnn1-c1ccc(O)cc1)N1N=C(c2ccc3ccccc3c2)CC1c1ccccc1 (centres unmarked),0.66
9,Cc1c(-c2ccccc2)sc(NC(=O)C23CC4CC(CC(O)(C4)C2)C3)c1C(=O)N1CCOCC1,-0.06
6,COc1cccc(C(=O)C2=C(O)C(=O)N(CCCN3CCOCC3)C2c2ccc(C)o2)c1 (centres unmarked),-0.18
10,O=C(C1=C(O)C(=O)N(CCCN2CCOCC2)C1c1ccco1)c1cc2ccccc2o1 (centres unmarked),0.09
12,NC(=O)c1ccc(C(=O)N2Cc3cc4c(cc3C3(CCCC3)C2)OCCO4)cc1,-0.05
5,CN(Cc1ccco1)C(=O)CSc1nccn1Cc1ccccn1,0.05
7,Cc1nc(-c2ccc(NC(=O)C3Cc4ccccc4O3)cc2)co1 (centres unmarked),-0.01
18,N#CC(C(=O)c1ccc([N+](=O)[O-])s1)=C1Nc2ccccc2N1,-0.02
14,O=c1cc(NCC2COc3ccccc3O2)nc2ccccn12 (centres unmarked),-0.19
21,O=c1[nH]c2ccccc2c(=O)n1CCSCCCO,-0.08
1,Cc1noc(C)c1CNc1ncnc2ccsc12,-0.14
4,COC(=O)c1cc(Br)cc(C(=O)O)c1,-0.52
17,NC(=O)c1ccc(CN2CCSCC2)cc1,0.07
19,NNC(=O)COc1ccccc1Cl,0.05
11,COC(=O)C1Cc2ccccc2N1 (centres unmarked),-0.13

# Later entries:

row,SMILES,TSA(with NAD+) / Primary screening (TSA) / delta Tm (K)
1,O=C(NC1CCSc2ccccc21)c1ccc2c(=O)n3c(nc2c1)CCC3 (centres unmarked),-0.06
2,COc1ccccc1NC(=O)C1CCN(C(=O)Nc2ccc(C)cc2OCc2ccccc2)CC1,0.06
3,COc1ccc(C(CNC=C2C(=O)NC(=S)NC2=O)N(C)C)cc1 (centres unmarked),-0.13
4,CCCCCC(C)NC(=O)c1cccc(S(=O)(=O)N(C)c2ccc(OC)cc2)c1 (centres unmarked),0.09
5,Cc1nc2ncnn2c(N2CCn3c(nnc3-c3ccccc3)C2)c1C,-0.02
6,O=C(O)C1CC(=O)N(c2ccc(S(=O)(=O)Nc3cccc([N+](=O)[O-])c3)cc2)C1 (centres unmarked),-0.01
7,CN1C(=O)c2oc3ccccc3c(=O)c2C1c1ccccc1F (centres unmarked),0.01
8,O=Cc1c[nH]nc1-c1ccc2c(c1)OCO2,-0.16
9,CCc1ccc(C(NCC(=O)Nc2oc(C)c3c(C)n[nH]c(=O)c23)C(C)C)cc1 (centres unmarked),-0.05
10,O=Cc1cn(CCC(=O)O)nc1-c1ccccc1,-0.05
11,CN(c1ccccc1)S(=O)(=O)c1cccc(C(=O)NCCCOCCc2ccccc2)c1,-0.15
12,COc1cc2c(cc1OC)CN(C(=O)c1cccc(S(=O)(=O)Nc3ccc(F)cc3)c1)CC2,-0.13
13,NC(=O)c1ccc(CNC2CCCCCC2)o1,-0.01
14,Oc1c(Br)cc2oc3c(c2c1/C=N/c1cccc2ccccc12)CCCC3,0.06
15,O=C1NC(=S)NC(=O)C1=CNc1ccc(Cl)c(Cl)c1,-0.11
16,C=C(CC)CN,0.02
17,Nc1ccnn1Cc1ccc(Cl)cc1Cl,-0.31
18,NCCCN,-0.14
19,COc1ccc(OC)c(NCCn2c(C)cn3c4c(=O)[nH]c(=O)n(C)c4nc23)c1,-0.03
20,OC(CNc1ncccn1)c1ccc(Cl)cc1 (centres unmarked),-0.04
21,Cc1nc(NCCc2ccccc2)sc1C(=O)O,-0.19

row,SMILES,TSA(with NAD+) / Primary screening (TSA) / delta Tm (K)
1,Cc1cccc(-c2cccc(CNC(=O)c3cccnc3S)c2)c1,0.33
2,Cc1ccc(C(=O)OCC(=O)Nc2c(C)n(C)n(-c3ccccc3)c2=O)cc1O,-0.22
3,Cc1nn(Cc2ccc(Cl)cc2)c(Cl)c1-c1nc(-c2ccccc2)c(-c2ccccc2)[nH]1,0.11
4,O=C(CSc1nnc(Nc2cccc(F)c2)s1)NCc1ccco1,-0.09
5,Cc1ccc(N(C)S(=O)(=O)c2cccc(C(=O)OCc3ccc(Cl)cc3)c2)cc1,-0.03
6,Cc1nc(-c2ccc(CCNC(=O)c3ccc(NC(=O)c4cccs4)cc3)s2)cs1,0.58
7,COc1ccc(CNCc2ccc(N3CCCC3=O)cc2)c(OC)c1,-0.11
8,Cn1c(=O)[nH]c2ccc(C(=O)O)cc21,0.01
9,Cc1ccc(C(=O)C2=C(O)C(=O)N(CCCN3CCOCC3)C2c2cccc([N+](=O)[O-])c2)cc1 (centres unmarked),-0.13
10,CC(C)(C)c1cc(NC(=O)CSc2nnc(NCc3ccco3)s2)on1,-0.02
11,COc1cc(CNC(=O)C2(C)CCOCC2)c2ccccc2n1,-0.02
12,COc1ccc(C(=O)C2=C(O)C(=O)N(CCCN3CCOCC3)C2c2cccs2)cc1C (centres unmarked),-0.09
13,COC(=O)C[C@H](N)C(=O)O,0.02
14,Cc1ccc(N)c(OCC(F)(F)F)c1,-0.18
15,Cc1ccc(-n2c(C)c(C)c3c(N)ncnc32)cc1,-0.11
16,C[C@H](N)C(N)=O,0.16
17,CC(CC(=O)N1CCN(c2ccc3nccnc3n2)CC1)c1ccccc1 (centres unmarked),-0.06
18,CCN(C(=O)c1ccc(Br)cc1F)c1ccncc1,0.06
19,CCc1cc2c(N3CCC(CCN4CCN(C)CC4)CC3)ncnc2s1,-0.06
20,CN(c1cccc(Cl)c1)S(=O)(=O)c1cccc(C(=O)Nc2ccc(C(N)=O)cc2)c1,-0.08
